PubChem BioAssay AID1053208, Peter MacCallum Cancer Centre, 2014

Assay: 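Synthetic lethal interactions between gene loss and doxorubicin in osteosarcoma cells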 (primary screen)
Cells: mouse osteosarcoma cells, early-passage culture from an engineered mouse model of fibroblastic bone tumour
Reagent: siRNA pool against mouse genes, 40 nM
Duration: about 120 h (48 h before drug, then 72 h with drug)
Challenge: doxorubicin 100 nM for 72 h, roughly 30-40% inhibitory dose
Measurement: 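Luminescent ATP signal taken as viability with or without 100 nM doxorubicin for 72 h; mean of two wells set against non-targeting siRNA and turned into robust z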
Reading the numbers: viability z-score with doxorubicin: higher = more viable cells under doxorubicin; viability z-score without drug: higher = more viable cells with knock-down alone
Call rule: 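Called active if knock-down leaves viability unchanged without drug (z within -2 to 2) but lowers it with doxorubicin (z at or under -2)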
The whole screen tested about 17,000 reagents; below is a part drawn at random. Over the whole deposit, 788 (4.7%) are marked active. 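Calls rest on z-score classes alone; an extra cut-off of viability at most 70% of control was not applied to them.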 The numbers tell different reagents against one gene apart. Not all columns of the deposit are shown.

Stard3nl (STARD3 N-terminal like)
- combined z-score class: no change with or without drug
- viability z-score with doxorubicin: 1.35
- viability z-score without drug: 0.51
- Call: inactive

Brcc3dc (BRCA1/BRCA2-containing complex, subunit 3, domain containing)
- combined z-score class: high cell count with and without drug
- viability z-score with doxorubicin: 2.47
- viability z-score without drug: 2.36
- Call: inactive

Bpifa5 (BPI fold containing family A, member 5)
- combined z-score class: no change with or without drug
- viability z-score with doxorubicin: -1.35
- viability z-score without drug: 0.51
- Call: inactive

Pop5
- combined z-score class: no change with or without drug
- viability z-score with doxorubicin: 0.22
- viability z-score without drug: -0.17
- Call: inactive

Necap2 (NECAP endocytosis associated 2)
- combined z-score class: no change with or without drug
- viability z-score with doxorubicin: -1.69
- viability z-score without drug: -0.51
- Call: inactive

Brdt (bromodomain, testis-specific)
- combined z-score class: no change with or without drug
- viability z-score with doxorubicin: -1.12
- viability z-score without drug: 1.18
- Call: inactive

Ppef2 (protein phosphatase, EF hand calcium-binding domain 2)
- combined z-score class: no change with or without drug
- viability z-score with doxorubicin: 0.56
- viability z-score without drug: -0.34
- Call: inactive

Cyp3a41a (cytochrome P450, family 3, subfamily a, polypeptide 41A)
- combined z-score class: no change with or without drug
- viability z-score with doxorubicin: 0.79
- viability z-score without drug: 0.34
- Call: inactive

Vwa5b2 (von Willebrand factor A domain containing 5B2) #1
- combined z-score class: no change with or without drug
- viability z-score with doxorubicin: 0
- viability z-score without drug: -0.17
- Call: inactive

Vwa5b2 (von Willebrand factor A domain containing 5B2) #2
- combined z-score class: no change with or without drug
- viability z-score with doxorubicin: 0
- viability z-score without drug: 0.17
- Call: inactive

Next part, starting with the last 2 of the part before.
Vwa5b2 (von Willebrand factor A domain containing 5B2) #1
- combined z-score class: no change with or without drug
- viability z-score with doxorubicin: 0
- viability z-score without drug: -0.17
- Call: inactive

Vwa5b2 (von Willebrand factor A domain containing 5B2) #2
- combined z-score class: no change with or without drug
- viability z-score with doxorubicin: 0
- viability z-score without drug: 0.17
- Call: inactive

Prpf3 (pre-mRNA processing factor 3)
- combined z-score class: no change with or without drug
- viability z-score with doxorubicin: -1.12
- viability z-score without drug: -0.84
- Call: inactive

Gnao1 (guanine nucleotide binding protein, alpha O)
- combined z-score class: low cell count with doxorubicin only
- viability z-score with doxorubicin: -2.25
- viability z-score without drug: 0.67
- Call: active

Cspg5 (chondroitin sulfate proteoglycan 5)
- combined z-score class: no change with or without drug
- viability z-score with doxorubicin: 0.45
- viability z-score without drug: 1.35
- Call: inactive

Zfp14 (zinc finger protein 14)
- combined z-score class: no change with or without drug
- viability z-score with doxorubicin: 0.67
- viability z-score without drug: 0.17
- Call: inactive

Mid1ip1
- combined z-score class: no change with or without drug
- viability z-score with doxorubicin: -0.22
- viability z-score without drug: -0.51
- Call: inactive

Samd12 (sterile alpha motif domain containing 12)
- combined z-score class: no change with or without drug
- viability z-score with doxorubicin: -0.45
- viability z-score without drug: -0.17
- Call: inactive

Dnajc15 (DnaJ heat shock protein family (Hsp40) member C15)
- combined z-score class: no change with or without drug
- viability z-score with doxorubicin: -1.35
- viability z-score without drug: 0.84
- Call: inactive

Neurog2 (neurogenin 2)
- combined z-score class: no change with or without drug
- viability z-score with doxorubicin: 0.79
- viability z-score without drug: 1.35
- Call: inactive

Dyrk4 (dual-specificity tyrosine phosphorylation regulated kinase 4)
- combined z-score class: no change with or without drug
- viability z-score with doxorubicin: -0.67
- viability z-score without drug: -0.51
- Call: inactive

Gpr20 (G protein-coupled receptor 20)
- combined z-score class: no change with or without drug
- viability z-score with doxorubicin: -0.22
- viability z-score without drug: 1.52
- Call: inactive

Sun1 (Sad1 and UNC84 domain containing 1)
- combined z-score class: no change with or without drug
- viability z-score with doxorubicin: -1.46
- viability z-score without drug: 0.84
- Call: inactive

Rrp9
- combined z-score class: low cell count with doxorubicin only
- viability z-score with doxorubicin: -2.25
- viability z-score without drug: -1.18
- Call: active

Dph7 (diphthamine biosynethesis 7)
- combined z-score class: no change with or without drug
- viability z-score with doxorubicin: -0.9
- viability z-score without drug: 0
- Call: inactive

Gnl2 (guanine nucleotide binding protein nucleolar 2)
- combined z-score class: no change with or without drug
- viability z-score with doxorubicin: -1.69
- viability z-score without drug: -1.85
- Call: inactive

Timm29 (translocase of inner mitochondrial membrane 29)
- combined z-score class: no change with or without drug
- viability z-score with doxorubicin: 0.67
- viability z-score without drug: 0.84
- Call: inactive

Ndp (Norrie disease (pseudoglioma) (human))
- combined z-score class: no change with or without drug
- viability z-score with doxorubicin: 1.57
- viability z-score without drug: 0.84
- Call: inactive

Ino80e (INO80 complex subunit E)
- combined z-score class: no change with or without drug
- viability z-score with doxorubicin: -1.57
- viability z-score without drug: 0.51
- Call: inactive

Or4c105 (olfactory receptor family 4 subfamily C member 105)
- combined z-score class: no change with or without drug
- viability z-score with doxorubicin: 0
- viability z-score without drug: -0.84
- Call: inactive
